Reference: patent publication US20240307439A1
Results are given in words; binding and its absence hold for the method and conditions named. Binding calls can cover weak binding; strength is not graded here.

Chains of the proteins cited; added tags and fusions are not shown. Lines headed by an entry give the natural chain unless they say otherwise; changes in a name come on top.
UniProt P55899: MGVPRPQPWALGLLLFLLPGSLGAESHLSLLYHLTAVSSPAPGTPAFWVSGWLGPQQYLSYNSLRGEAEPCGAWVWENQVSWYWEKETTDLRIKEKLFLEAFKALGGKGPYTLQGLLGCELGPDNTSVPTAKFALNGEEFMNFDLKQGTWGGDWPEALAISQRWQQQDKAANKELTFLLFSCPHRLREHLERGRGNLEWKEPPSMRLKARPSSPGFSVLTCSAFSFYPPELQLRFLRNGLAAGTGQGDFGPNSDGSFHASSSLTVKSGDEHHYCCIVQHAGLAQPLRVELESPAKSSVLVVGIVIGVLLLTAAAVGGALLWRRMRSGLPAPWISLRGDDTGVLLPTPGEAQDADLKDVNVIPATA

Columns and labels:
[1] = biological target: Biotinylated human FcRn (human) (UniProt P55899); test: ELISA
[2] = biological target: Biotinylated human FcRn (human) (UniProt P55899); test: ELISA, adapter coated, biotinylated human FcRn titrated at pH 6.0 or 7.4, streptavidin-HRP, A450
[3] = biological target: Biotinylated human FcRn (human) (UniProt P55899); test: ELISA, adapter coated, biotinylated human FcRn titrated at pH 6.0 or 7.4

binding [1]	binding [2]	binding [3]	Binder
binds	binds	binds	bc98-p26(Q26-V229)-bc98 (designed binder) DEMGSWSEFWARLGAIRERLDALGGSEAELAAFEKEIAAFESELQAYKGKGNPEVEKLRYTAGTIKRFLQAYRHNGGGGDGGGGSGGGGSGQESQALAKRSCGLFQKLGEYYLQNAFLVAYTKKAPQLTSSELMAITRKMAATAATCCQLSEDKLLACGEGAADIIIGHLCIRHEMTPVNPGVGQCCTSSYANRRPCFSSLVVDETYVPPAFSDDKFIFHKDLCQAQGVALQTMKQEFLINLVKQKPQITEEQLEAVIADFSGLLEKCCQGQEQEVCFAEEGQKLISKTRAALGVGGGGSGGGGSGGGGSMGSWSEFWARLGAIRERLDALGGSEAELAAFEKEIAAFESELQAYKGKGNPEVEKLRYTAGTIKRFLQAYRHNGGGGSGGGGSGGGGSHHHHHHHHHH
binds	binds	binds	bc40-p26 Adapter (designed binder) DEHHHHHHHHHHKLENLYFQGGGGGSMGSWSEFWVRLGAIRERLDALGGSEAELAAFEKEIAAFESELQAYKGKGNPEVEKLRYTAATIRRFLQAYRHNGGGGSGGGGSGGGGSLEKCFQTENPLECQDKGEEELQKYIQESQALAKRSCGLFQKLGEYYLQNAFLVAYTKKAPQLTSSELMAITRKMAATAATCCQLSEDKLLACGEGAADIIIGHLCIRHEMTPVNPGVGQCCTSSYANRRPCFSSLVVDETYVPPAFSDDKFIFHKDLCQAQGVALQTMKQEFLINLVKQKPQITEEQLEAVIADFSGLLEKCCQGQEQEVCFAEEGQKLISKTRAALGV
